Measured values reported in the supplement of paper PMC6411743.
± gives the standard deviation of the averaged measurements. The entries are a selection whose mix differs from that of the whole data set.

By UniProt entry, the sequences of proteins in these tests, tags left out. Where a name states a change or a piece, a line headed by the entry shows the natural chain unless it says otherwise.
UniProt Q8WUX9: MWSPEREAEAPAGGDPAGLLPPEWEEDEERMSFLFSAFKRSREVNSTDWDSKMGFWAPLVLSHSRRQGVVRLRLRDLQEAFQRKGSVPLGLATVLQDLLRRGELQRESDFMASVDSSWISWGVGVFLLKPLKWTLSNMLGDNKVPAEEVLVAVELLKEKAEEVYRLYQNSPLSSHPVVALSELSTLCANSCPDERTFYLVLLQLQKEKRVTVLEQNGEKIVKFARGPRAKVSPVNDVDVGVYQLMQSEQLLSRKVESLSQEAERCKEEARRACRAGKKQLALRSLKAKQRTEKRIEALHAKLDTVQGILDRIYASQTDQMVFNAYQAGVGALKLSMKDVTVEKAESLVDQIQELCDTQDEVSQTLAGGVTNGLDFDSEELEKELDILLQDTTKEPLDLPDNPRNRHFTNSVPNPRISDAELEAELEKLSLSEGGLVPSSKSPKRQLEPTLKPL
UniProt Q8NDX6: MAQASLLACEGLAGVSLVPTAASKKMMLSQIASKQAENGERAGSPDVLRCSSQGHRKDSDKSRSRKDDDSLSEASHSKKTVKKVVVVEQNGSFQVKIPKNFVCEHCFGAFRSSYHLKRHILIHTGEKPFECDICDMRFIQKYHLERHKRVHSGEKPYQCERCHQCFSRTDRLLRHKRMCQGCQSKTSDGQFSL
UniProt Q8NI37: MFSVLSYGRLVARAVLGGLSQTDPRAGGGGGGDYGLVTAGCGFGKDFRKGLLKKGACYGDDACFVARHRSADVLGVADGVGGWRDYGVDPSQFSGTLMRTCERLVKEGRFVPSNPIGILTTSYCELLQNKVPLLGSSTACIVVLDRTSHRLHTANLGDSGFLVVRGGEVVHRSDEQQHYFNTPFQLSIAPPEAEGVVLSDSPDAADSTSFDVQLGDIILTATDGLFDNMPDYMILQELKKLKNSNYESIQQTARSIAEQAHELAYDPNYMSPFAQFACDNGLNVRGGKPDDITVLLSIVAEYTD
UniProt Q8TEQ0: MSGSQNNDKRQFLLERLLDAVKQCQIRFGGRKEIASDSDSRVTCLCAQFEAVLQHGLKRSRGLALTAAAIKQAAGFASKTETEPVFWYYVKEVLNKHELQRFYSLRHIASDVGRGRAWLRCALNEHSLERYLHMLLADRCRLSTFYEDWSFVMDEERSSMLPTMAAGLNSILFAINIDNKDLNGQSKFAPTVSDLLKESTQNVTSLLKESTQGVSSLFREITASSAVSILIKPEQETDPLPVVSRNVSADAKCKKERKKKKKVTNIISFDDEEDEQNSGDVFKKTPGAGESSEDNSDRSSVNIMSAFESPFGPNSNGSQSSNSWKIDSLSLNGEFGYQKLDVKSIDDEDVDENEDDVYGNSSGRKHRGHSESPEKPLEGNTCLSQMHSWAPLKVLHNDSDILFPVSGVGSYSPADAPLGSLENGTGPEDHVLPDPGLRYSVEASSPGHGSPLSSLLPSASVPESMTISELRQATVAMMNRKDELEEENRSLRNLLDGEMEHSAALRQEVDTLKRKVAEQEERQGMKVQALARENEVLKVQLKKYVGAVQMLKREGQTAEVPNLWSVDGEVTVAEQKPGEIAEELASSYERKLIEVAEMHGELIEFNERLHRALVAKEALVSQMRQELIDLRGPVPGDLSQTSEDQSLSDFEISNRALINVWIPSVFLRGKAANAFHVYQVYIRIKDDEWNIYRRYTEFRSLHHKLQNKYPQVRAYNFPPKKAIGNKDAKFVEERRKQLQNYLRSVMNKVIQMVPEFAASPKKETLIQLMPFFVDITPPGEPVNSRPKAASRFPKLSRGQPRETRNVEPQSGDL
UniProt Q92618: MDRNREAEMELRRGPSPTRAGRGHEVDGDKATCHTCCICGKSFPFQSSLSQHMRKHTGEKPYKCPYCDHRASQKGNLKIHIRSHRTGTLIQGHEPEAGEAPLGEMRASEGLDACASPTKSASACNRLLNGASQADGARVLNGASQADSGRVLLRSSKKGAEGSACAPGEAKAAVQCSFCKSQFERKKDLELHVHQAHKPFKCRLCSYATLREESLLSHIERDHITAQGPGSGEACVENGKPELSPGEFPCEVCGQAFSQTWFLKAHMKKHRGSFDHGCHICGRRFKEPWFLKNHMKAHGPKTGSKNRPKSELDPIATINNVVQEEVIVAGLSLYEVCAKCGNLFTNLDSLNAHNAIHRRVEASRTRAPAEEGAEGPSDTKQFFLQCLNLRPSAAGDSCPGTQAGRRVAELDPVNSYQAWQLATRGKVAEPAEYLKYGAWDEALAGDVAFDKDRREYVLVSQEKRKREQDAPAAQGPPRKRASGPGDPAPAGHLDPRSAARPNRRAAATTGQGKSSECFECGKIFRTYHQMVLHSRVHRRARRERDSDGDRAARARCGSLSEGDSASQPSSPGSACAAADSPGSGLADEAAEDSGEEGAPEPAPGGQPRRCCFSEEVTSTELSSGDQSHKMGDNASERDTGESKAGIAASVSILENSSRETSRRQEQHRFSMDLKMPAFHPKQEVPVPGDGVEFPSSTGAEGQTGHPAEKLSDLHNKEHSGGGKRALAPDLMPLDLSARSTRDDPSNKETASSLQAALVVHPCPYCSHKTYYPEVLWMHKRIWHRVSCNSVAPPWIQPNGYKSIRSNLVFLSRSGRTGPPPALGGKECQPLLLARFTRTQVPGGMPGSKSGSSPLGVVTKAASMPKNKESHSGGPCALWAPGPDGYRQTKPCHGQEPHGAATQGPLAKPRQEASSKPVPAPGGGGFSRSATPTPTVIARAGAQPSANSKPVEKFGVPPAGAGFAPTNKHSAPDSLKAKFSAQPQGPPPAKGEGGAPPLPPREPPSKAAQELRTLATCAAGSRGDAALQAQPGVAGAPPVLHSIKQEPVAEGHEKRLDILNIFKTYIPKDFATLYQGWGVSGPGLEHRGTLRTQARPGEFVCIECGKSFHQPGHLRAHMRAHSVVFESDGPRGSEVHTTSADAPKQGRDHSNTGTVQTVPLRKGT
UniProt Q8TBM8: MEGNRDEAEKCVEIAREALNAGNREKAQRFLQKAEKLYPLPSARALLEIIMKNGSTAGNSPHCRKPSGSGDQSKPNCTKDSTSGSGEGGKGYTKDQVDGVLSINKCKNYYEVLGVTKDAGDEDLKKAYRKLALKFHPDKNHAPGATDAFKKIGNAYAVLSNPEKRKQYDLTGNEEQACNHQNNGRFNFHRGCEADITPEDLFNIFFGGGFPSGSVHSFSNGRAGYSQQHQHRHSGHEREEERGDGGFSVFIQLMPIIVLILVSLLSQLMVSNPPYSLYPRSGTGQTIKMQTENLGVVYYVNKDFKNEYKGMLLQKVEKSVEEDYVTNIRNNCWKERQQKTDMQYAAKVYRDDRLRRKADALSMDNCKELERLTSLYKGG
UniProt Q92600, whole entry: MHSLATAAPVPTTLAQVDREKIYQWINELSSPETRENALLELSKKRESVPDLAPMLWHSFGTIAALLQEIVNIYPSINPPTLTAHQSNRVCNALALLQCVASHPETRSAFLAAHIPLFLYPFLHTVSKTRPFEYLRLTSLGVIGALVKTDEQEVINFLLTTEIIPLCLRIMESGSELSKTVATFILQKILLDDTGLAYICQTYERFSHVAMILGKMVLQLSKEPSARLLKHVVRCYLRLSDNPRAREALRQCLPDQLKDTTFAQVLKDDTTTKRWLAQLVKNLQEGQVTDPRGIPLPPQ
UniProt Q92738: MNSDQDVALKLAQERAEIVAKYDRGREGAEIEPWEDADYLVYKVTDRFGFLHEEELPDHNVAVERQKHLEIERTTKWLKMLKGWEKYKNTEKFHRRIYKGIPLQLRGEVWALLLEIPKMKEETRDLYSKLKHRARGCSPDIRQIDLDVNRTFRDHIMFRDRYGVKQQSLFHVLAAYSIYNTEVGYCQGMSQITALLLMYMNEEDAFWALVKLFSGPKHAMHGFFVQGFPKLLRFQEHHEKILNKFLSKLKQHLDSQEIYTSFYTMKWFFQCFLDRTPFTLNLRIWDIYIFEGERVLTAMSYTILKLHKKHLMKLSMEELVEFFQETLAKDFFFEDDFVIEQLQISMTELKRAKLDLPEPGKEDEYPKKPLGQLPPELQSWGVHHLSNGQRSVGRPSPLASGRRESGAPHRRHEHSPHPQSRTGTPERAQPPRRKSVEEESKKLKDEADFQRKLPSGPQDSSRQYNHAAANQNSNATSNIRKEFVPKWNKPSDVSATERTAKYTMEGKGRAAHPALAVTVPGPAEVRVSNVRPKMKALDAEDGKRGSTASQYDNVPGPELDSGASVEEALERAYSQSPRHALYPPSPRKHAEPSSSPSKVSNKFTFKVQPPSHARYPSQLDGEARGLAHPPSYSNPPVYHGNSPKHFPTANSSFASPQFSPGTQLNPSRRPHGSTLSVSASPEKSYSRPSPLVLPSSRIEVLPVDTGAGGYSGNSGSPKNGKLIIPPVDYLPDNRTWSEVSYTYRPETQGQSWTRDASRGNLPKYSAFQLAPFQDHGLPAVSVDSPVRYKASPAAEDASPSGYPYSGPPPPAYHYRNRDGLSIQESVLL
UniProt Q8WYN0: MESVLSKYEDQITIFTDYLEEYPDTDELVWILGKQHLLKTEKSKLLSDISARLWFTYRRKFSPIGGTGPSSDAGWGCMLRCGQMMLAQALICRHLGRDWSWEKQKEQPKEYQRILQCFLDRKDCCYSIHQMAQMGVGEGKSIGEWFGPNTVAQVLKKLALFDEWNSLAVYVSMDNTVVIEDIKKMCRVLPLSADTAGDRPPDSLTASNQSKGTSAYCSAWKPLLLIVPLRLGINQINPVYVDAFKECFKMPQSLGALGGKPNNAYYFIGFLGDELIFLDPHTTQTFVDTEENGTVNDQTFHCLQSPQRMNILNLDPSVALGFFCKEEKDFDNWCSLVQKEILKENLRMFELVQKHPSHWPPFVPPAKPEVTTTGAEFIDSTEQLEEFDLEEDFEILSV
UniProt Q8NC96: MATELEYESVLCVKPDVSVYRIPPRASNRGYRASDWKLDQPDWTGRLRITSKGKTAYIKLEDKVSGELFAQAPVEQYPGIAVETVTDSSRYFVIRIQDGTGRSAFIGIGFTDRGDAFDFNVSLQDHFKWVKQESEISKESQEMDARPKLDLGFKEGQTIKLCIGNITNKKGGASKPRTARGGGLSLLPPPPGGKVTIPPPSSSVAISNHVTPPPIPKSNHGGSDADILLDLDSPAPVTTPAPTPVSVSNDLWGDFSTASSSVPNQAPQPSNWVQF
UniProt Q8NFH3: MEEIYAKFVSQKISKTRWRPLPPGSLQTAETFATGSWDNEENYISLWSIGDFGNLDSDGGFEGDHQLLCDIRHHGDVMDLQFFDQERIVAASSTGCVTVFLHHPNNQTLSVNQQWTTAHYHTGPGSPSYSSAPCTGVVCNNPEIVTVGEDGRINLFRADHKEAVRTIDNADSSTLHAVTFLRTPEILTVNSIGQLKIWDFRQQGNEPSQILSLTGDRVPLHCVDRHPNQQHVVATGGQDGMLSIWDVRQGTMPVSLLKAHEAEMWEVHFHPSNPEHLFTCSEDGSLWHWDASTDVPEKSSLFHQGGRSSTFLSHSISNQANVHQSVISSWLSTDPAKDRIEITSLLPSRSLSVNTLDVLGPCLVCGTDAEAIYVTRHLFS
UniProt Q92905, whole entry, looked up: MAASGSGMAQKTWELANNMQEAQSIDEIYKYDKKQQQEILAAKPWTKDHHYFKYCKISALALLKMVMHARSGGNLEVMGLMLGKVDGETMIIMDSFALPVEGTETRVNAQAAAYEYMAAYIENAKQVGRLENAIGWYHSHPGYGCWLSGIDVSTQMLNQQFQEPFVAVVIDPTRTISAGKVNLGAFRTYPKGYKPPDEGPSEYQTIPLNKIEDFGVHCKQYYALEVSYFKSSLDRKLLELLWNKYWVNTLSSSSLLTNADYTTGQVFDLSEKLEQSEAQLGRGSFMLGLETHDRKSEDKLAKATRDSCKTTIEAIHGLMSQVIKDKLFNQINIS

Compound: Nc1ncnc2c1ncn2[C@@H]1O[C@H](COP(=O)(O)OP(=O)(O)NP(=O)(O)O)[C@@H](O)[C@H]1O [adenylyl imidodiphosphate]
Experiment: NP40-soluble protein abundance relative to vehicle (solubility fold change) (ratio); higher = more soluble protein in presence of AMP-PNP
How it was run: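 Crude Jurkat lysate, prepared by Dounce homogenisation, was exposed to eight concentrations from 0.1 to 10 mM for 10 min at room temperature and then 3 min at 37 °C. Solubilisation used 0.8% NP40 with benzonase for 60 min at 4 °C, followed by ultracentrifugation and TMT labelling of the supernatant for LC-MS/MS. After vsn normalisation of intensities, each value is the fold change against the detergent-processed vehicle within each replicate, across three independent experiments.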

Row | Target | NP40-soluble protein abundance (concentration: 1mM) | NP40-soluble protein abundance (concentration: 2mM) | NP40-soluble protein abundance (concentration: 4mM) | NP40-soluble protein abundance (concentration: 6mM) | NP40-soluble protein abundance (concentration: 8mM) | NP40-soluble protein abundance (concentration: 10mM)
1 | LSM14A (UniProt Q8ND56) | 1.01 ± 0.012 | 1.09 ± 0.08 | 1.04 ± 0.018 | 1.05 ± 0.016 | 1.04 ± 0.024 | 1.05 ± 0.033
2 | UniProt Q8WUF8 and related entries | 1.01 ± 0.016 | 1.044 ± 0.0074 | 1.037 ± 0.0037 | 1.04 ± 0.056 | 1.02 ± 0.045 | 1.02 ± 0.031
3 | CHMP7 (UniProt Q8WUX9) | 0.993 ± 0.028 | 1.03 ± 0.053 | 0.9727 ± 0.0079 | 1 ± 0.011 | 0.9358 ± 0.0077 | 0.985 ± 0.029
4 | ZNF740 (UniProt Q8NDX6) | 0.985 ± 0.021 | 1.01 ± 0.027 | 1.03 ± 0.014 | 1.08 ± 0.07 | 1.1 ± 0.078 | 1.1 ± 0.057
5 | PPTC7 (UniProt Q8NI37) | 1 ± 0.025 | 1.01 ± 0.034 | 1.02 ± 0.02 | 1.01 ± 0.015 | 1.01 ± 0.019 | 1.01 ± 0.019
6 | UniProt Q8TEQ0 and related entries | 1.02 ± 0.035 | 1.03 ± 0.047 | 1.01 ± 0.029 | 0.98 ± 0.054 | 0.969 ± 0.017 | 0.953 ± 0.021
7 | UBASH3B (UniProt Q8TF42) | 0.969 ± 0.05 | 0.908 ± 0.071 | 0.959 ± 0.032 | 0.986 ± 0.064 | 0.997 ± 0.035 | 0.959 ± 0.012
8 | ZNF516 (UniProt Q92618) | 1.007 ± 0.0043 | 1.02 ± 0.075 | 1.013 ± 0.0072 | 1.01 ± 0.011 | 0.99588 ± 0.00056 | 1.03 ± 0.053
9 | GPT2 (UniProt Q8TD30) | 0.958 ± 0.02 | 0.964 ± 0.023 | 0.945 ± 0.031 | 0.937 ± 0.046 | 0.923 ± 0.015 | 0.964 ± 0.036
10 | DNAJB14 (UniProt Q8TBM8) | 0.975 ± 0.025 | 0.987 ± 0.066 | 0.971 ± 0.028 | 0.953 ± 0.039 | 0.952 ± 0.035 | 0.947 ± 0.035
11 | UniProt Q92600 and related entries | 0.963 ± 0.026 | 1.02 ± 0.057 | 1.03 ± 0.06 | 1.11 ± 0.053 | 1.14 ± 0.05 | 1.06 ± 0.086
12 | UniProt Q92738 and related entries | 0.986 ± 0.019 | 1.04 ± 0.077 | 0.96 ± 0.03 | 0.99 ± 0.036 | 0.966 ± 0.028 | 0.969 ± 0.019
13 | PPP1R13L (UniProt Q8WUF5) | 1.01 ± 0.017 | 0.9997 ± 0.0052 | 1 ± 0.025 | 1.01 ± 0.029 | 0.97 ± 0.04 | 0.992 ± 0.011
14 | UniProt Q8WYN0 and related entries | 1 ± 0.013 | 1 ± 0.0077 | 0.993 ± 0.0083 | 0.9887 ± 0.0043 | 0.984 ± 0.026 | 0.9922 ± 0.0012
15 | NECAP1 (UniProt Q8NC96) | 1.03 ± 0.044 | 1.05 ± 0.028 | 1.06 ± 0.045 | 1.02 ± 0.036 | 1.08 ± 0.017 | 1.05 ± 0.012
16 | GADD45GIP1 (UniProt Q8TAE8) | 0.96 ± 0.026 | 1.06 ± 0.0042 | 0.968 ± 0.0089 | 0.977 ± 0.041 | 0.953 ± 0.025 | 0.966 ± 0.024
17 | NUP43 (UniProt Q8NFH3) | 1.02 ± 0.026 | 1 ± 0.076 | 1.05 ± 0.032 | 1.01 ± 0.015 | 1.03 ± 0.038 | 0.999 ± 0.024
18 | COPS5 (UniProt Q92905) | 0.993 ± 0.044 | 0.974 ± 0.042 | 0.982 ± 0.053 | 0.9789 ± 0.007 | 1.01 ± 0.082 | 0.958 ± 0.056

Complete entries, quoted from the list.
UniProt Q92600 and related entries in the list: NP40-soluble protein abundance (concentration: 1mM): 0.963 ± 0.026; NP40-soluble protein abundance (concentration: 2mM): 1.02 ± 0.057; NP40-soluble protein abundance (concentration: 4mM): 1.03 ± 0.06; NP40-soluble protein abundance (concentration: 6mM): 1.11 ± 0.053; NP40-soluble protein abundance (concentration: 8mM): 1.14 ± 0.05; NP40-soluble protein abundance (concentration: 10mM): 1.06 ± 0.086
COPS5 (UniProt Q92905) in the list: NP40-soluble protein abundance (concentration: 1mM): 0.993 ± 0.044; NP40-soluble protein abundance (concentration: 2mM): 0.974 ± 0.042; NP40-soluble protein abundance (concentration: 4mM): 0.982 ± 0.053; NP40-soluble protein abundance (concentration: 6mM): 0.9789 ± 0.007; NP40-soluble protein abundance (concentration: 8mM): 1.01 ± 0.082; NP40-soluble protein abundance (concentration: 10mM): 0.958 ± 0.056
